PubChem BioAssay AID1259308, NCATS | 2017
Test: 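Candidate targets for better recombinant protein yield in mammalian cells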 (primary screen). System: human HEK293 embryonic kidney cells stably expressing firefly luciferase (HEK-CMV-Luc2-Hygro). Knock-down reagent: single siRNA against human genes, 0.8 pmol siRNA per well. Time to read-out: 72 h. Measured: 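Reporter luminescence and viable-cell signal on separate replicate plates, given as percent of non-targeting control and median/MAD z-scores, plus per-cell luciferase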. Direction: total luciferase, z-score and total luciferase, % of control: higher = more reporter protein produced. Hit rule: 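An siRNA counts as active if its total luciferase robust z-score exceeds 3; genes with two or more such siRNAs out of three were retested with fresh siRNAs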. Meaning of the calls: active = raised luciferase; inactive = no rise.
In all, the deposit lists about 59,000 reagents; this is a part drawn at random. In the full data, about 1,510 (2.6%) got an active call. 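Calls use total luciferase alone and ignore viability, so some active siRNAs may act by altering cell number.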 Entries without a mark were called inactive. The numbers tell different reagents against one gene apart. Further read-outs or replicates are left out here. Reagent sequences are not shown.

TRIM3 (GeneID 10612) #1 → total luciferase, z-score: 0.405; total luciferase, % of control: 89.9
TRIM3 (GeneID 10612) #2 → total luciferase, z-score: -0.776; total luciferase, % of control: 66.4
TRIM3 (GeneID 10612) #3 → total luciferase, z-score: -1.66; total luciferase, % of control: 48.9
PRKACA (GeneID 5566) #1 → total luciferase, z-score: -0.281; total luciferase, % of control: 76.3
PRKACA (GeneID 5566) #2 → total luciferase, z-score: -2.11; total luciferase, % of control: 39.9
PRKACA (GeneID 5566) #3 → total luciferase, z-score: 3.02 (active); total luciferase, % of control: 142
FAM174B (GeneID 400451) #1 → total luciferase, z-score: 1.33; total luciferase, % of control: 108
FAM174B (GeneID 400451) #2 → total luciferase, z-score: -0.768; total luciferase, % of control: 66.6
FAM174B (GeneID 400451) #3 → total luciferase, z-score: 0.16; total luciferase, % of control: 85.1
PPP1R42 (GeneID 286187) #1 → total luciferase, z-score: 0.154; total luciferase, % of control: 85
PPP1R42 (GeneID 286187) #2 → total luciferase, z-score: -0.545; total luciferase, % of control: 71
PPP1R42 (GeneID 286187) #3 → total luciferase, z-score: 0.423; total luciferase, % of control: 90.3
NOL4L (GeneID 140688) #1 → total luciferase, z-score: 4.15 (active); total luciferase, % of control: 164
NOL4L (GeneID 140688) #2 → total luciferase, z-score: 0.915; total luciferase, % of control: 100
NOL4L (GeneID 140688) #3 → total luciferase, z-score: -0.81; total luciferase, % of control: 65.8
LGALSL (GeneID 29094) #1 → total luciferase, z-score: -0.968; total luciferase, % of control: 62.6
LGALSL (GeneID 29094) #2 → total luciferase, z-score: 0.023; total luciferase, % of control: 82.3
LGALSL (GeneID 29094) #3 → total luciferase, z-score: -1.52; total luciferase, % of control: 51.7
BORCS7 (GeneID 119032) #1 → total luciferase, z-score: 0.0199; total luciferase, % of control: 82.3
BORCS7 (GeneID 119032) #2 → total luciferase, z-score: -0.00221; total luciferase, % of control: 81.8
BORCS7 (GeneID 119032) #3 → total luciferase, z-score: -1.11; total luciferase, % of control: 59.8

An excerpt from above, reduced to “total luciferase, % of control”.
LGALSL (GeneID 29094) #1	62.6
LGALSL (GeneID 29094) #2	82.3
LGALSL (GeneID 29094) #3	51.7
